Measurements reported in the supplement of paper PMC11006884.
The list shows a part of the results, in another mix than the full data.

Protein sequences, listed by entry. Tags and fused reporters are not part of them. Lines headed by an entry give the natural chain unless they say otherwise; changes in a name come on top.
UniProt Q9UQ35: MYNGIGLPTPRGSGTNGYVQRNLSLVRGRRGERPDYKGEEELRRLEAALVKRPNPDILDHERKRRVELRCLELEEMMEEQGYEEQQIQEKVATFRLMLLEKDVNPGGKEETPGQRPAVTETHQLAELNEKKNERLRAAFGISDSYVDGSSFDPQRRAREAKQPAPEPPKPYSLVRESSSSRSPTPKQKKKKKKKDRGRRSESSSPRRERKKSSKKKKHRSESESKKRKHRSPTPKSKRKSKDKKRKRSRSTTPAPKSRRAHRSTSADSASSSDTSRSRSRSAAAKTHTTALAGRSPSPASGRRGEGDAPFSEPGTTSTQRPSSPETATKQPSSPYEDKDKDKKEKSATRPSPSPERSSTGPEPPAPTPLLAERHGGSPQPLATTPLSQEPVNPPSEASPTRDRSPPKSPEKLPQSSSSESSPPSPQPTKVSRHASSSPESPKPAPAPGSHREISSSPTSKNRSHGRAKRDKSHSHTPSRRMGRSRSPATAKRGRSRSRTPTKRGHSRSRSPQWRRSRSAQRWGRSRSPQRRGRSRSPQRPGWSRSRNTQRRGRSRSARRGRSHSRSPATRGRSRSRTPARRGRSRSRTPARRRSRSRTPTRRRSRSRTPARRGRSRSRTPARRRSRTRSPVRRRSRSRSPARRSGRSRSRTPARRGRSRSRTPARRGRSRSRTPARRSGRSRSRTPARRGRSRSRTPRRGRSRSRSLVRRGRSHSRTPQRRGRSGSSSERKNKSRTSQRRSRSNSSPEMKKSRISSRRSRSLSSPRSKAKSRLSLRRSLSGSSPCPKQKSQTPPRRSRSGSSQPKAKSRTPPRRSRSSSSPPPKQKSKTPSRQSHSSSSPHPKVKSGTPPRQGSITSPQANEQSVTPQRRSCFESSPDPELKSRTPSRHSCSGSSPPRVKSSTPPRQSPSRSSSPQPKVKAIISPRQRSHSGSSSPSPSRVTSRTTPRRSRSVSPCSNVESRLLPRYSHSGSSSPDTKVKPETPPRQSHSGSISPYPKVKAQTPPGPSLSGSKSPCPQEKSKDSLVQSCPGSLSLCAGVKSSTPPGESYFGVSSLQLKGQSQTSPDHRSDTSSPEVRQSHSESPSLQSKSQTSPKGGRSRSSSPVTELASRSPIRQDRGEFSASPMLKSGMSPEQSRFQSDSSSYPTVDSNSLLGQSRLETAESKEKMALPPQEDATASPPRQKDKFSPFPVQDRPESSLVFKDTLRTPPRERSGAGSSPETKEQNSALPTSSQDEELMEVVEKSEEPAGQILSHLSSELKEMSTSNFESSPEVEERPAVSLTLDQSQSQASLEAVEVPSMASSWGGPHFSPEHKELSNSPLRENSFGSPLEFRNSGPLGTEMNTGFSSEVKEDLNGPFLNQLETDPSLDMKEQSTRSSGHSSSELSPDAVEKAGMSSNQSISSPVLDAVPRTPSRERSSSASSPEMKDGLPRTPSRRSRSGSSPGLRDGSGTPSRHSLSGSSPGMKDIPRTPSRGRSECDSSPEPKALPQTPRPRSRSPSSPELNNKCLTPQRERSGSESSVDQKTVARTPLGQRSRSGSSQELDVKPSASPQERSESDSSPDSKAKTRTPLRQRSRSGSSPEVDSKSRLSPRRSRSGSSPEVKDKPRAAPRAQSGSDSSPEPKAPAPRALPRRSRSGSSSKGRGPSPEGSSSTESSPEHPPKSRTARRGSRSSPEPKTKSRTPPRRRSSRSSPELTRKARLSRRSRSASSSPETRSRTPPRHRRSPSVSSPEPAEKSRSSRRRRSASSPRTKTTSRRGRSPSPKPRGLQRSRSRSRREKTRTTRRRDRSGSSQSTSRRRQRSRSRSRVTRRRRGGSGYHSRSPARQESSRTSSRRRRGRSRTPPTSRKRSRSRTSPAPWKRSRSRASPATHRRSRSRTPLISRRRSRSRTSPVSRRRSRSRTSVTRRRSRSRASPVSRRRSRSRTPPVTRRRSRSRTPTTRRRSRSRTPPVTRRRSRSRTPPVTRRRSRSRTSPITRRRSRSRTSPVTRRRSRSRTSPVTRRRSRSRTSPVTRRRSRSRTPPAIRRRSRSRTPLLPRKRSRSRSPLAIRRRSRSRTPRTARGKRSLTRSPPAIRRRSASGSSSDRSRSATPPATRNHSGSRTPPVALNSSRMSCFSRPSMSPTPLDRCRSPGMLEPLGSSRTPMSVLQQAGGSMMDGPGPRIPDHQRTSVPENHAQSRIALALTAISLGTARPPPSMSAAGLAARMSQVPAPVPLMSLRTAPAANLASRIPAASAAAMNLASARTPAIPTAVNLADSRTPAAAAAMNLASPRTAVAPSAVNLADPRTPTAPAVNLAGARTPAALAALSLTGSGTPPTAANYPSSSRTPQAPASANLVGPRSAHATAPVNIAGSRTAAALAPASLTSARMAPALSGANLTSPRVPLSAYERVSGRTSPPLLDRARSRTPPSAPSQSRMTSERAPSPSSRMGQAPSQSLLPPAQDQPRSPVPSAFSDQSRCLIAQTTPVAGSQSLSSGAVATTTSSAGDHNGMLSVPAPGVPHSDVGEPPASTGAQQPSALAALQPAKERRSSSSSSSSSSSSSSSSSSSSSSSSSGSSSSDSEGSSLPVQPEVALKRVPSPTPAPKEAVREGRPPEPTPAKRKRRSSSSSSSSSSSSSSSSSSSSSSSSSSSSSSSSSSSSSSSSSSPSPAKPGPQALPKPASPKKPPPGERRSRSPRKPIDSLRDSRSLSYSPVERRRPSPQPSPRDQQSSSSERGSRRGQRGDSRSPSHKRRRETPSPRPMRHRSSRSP
UniProt Q9Y2X3: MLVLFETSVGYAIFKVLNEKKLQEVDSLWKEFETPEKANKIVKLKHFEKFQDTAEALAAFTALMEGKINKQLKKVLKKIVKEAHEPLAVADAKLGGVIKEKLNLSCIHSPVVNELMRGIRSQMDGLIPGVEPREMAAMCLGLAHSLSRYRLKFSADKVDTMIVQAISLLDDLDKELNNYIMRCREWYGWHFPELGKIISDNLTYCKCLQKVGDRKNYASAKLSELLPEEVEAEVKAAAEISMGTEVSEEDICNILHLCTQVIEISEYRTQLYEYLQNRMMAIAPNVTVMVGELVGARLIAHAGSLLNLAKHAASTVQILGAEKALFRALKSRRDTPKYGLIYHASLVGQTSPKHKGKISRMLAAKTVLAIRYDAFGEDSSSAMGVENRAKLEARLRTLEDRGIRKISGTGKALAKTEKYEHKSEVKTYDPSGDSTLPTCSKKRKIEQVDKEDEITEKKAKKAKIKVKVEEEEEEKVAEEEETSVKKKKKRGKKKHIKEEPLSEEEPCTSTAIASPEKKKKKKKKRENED
UniProt Q9ULG1, whole entry, looked up: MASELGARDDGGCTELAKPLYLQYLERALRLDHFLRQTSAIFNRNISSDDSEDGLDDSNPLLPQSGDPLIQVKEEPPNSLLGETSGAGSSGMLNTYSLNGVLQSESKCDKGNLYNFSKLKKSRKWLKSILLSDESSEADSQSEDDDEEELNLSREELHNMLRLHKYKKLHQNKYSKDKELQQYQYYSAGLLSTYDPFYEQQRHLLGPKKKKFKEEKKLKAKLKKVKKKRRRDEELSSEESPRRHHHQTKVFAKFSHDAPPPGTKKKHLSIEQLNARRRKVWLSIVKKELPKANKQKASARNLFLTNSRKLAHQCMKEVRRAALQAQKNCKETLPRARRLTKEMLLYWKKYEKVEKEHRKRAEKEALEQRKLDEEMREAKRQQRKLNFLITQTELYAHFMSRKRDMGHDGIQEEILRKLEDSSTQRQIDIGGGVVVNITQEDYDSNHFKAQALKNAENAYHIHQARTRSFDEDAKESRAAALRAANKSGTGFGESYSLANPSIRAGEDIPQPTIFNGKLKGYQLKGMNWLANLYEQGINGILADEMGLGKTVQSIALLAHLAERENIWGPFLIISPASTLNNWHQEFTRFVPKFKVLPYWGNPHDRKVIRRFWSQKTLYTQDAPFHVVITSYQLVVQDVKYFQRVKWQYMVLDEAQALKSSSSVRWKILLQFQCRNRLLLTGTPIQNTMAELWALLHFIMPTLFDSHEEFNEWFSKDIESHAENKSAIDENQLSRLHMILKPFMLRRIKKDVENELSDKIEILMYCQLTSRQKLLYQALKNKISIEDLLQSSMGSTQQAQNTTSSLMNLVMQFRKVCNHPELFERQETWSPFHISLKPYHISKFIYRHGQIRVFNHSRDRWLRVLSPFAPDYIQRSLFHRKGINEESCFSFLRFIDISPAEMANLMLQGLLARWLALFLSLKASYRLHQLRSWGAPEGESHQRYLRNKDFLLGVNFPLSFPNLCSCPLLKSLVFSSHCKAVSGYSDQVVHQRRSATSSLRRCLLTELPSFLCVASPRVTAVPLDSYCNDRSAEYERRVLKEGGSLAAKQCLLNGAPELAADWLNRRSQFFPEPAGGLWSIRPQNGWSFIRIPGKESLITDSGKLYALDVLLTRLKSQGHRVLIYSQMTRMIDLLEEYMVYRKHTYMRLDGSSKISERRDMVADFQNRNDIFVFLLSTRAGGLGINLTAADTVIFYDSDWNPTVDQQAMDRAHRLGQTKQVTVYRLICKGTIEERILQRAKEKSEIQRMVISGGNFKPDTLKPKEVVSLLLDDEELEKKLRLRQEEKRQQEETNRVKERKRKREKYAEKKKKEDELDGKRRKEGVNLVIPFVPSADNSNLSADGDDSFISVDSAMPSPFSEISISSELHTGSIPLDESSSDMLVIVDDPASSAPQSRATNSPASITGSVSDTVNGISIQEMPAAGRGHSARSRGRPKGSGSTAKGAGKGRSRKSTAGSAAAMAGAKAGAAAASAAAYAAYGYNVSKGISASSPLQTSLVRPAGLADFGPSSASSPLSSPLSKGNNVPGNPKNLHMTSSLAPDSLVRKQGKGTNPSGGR
UniProt Q9UHD1: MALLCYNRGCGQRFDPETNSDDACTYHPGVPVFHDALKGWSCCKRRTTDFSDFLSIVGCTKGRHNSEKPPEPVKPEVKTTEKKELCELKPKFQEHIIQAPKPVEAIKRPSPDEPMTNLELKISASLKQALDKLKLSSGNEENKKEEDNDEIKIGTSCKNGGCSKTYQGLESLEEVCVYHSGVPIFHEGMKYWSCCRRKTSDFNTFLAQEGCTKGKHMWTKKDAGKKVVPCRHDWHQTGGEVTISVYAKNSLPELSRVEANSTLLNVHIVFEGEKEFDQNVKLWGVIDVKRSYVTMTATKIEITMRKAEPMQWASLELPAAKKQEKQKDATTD
UniProt Q9UPT8: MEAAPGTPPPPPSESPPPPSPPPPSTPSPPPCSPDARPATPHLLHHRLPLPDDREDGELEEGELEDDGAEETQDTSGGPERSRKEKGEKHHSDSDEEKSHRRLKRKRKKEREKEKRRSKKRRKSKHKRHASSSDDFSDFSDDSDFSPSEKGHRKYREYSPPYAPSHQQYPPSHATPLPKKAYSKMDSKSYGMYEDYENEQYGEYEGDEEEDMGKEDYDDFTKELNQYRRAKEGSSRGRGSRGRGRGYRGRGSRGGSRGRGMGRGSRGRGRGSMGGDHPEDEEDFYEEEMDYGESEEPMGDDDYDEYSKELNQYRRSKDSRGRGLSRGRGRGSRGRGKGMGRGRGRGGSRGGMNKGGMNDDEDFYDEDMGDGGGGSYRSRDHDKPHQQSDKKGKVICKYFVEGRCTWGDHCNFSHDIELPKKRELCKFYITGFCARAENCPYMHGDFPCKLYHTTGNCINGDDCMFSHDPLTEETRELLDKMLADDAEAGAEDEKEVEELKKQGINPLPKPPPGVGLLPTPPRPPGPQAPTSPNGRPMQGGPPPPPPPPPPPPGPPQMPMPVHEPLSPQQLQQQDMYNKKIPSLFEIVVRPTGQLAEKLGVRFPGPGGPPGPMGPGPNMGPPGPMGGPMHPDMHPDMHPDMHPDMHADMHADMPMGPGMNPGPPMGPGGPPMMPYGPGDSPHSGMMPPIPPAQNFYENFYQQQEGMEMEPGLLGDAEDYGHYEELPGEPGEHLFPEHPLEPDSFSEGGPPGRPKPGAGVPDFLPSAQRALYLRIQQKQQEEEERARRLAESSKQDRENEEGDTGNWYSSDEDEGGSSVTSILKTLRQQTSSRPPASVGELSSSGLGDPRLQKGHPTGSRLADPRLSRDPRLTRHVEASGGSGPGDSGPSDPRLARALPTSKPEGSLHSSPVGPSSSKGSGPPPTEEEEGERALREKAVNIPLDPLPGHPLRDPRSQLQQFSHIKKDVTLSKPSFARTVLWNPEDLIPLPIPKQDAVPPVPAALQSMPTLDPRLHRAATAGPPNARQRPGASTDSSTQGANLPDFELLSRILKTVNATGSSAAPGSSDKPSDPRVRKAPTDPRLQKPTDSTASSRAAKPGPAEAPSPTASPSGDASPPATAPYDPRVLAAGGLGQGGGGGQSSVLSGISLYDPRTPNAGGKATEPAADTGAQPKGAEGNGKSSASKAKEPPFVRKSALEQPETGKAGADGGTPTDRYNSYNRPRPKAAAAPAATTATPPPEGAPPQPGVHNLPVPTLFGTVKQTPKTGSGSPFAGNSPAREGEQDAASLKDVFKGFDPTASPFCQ

Compound: COC(=O)C#Cc1ccccc1 [methyl 3-phenylpropiolate]
Test: log2 ratio of iodoacetamide-alkyne labeling of the cysteine site, DMSO over compound (competition); higher = stronger covalent engagement of the cysteine by the compound, active = 1 or more
Conditions: 500 µM; treatment time 1 h; system: HEK293T cell lysate
In short: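 HEK293T lysate (2 mg/mL) was incubated with electrophile (500 µM) or vehicle for 1 h at ambient temperature and then with iodoacetamide alkyne for 1 h. Labelled proteins were clicked to sCIP-TMT reagents, pooled, digested, enriched on streptavidin and measured by Orbitrap Eclipse LC-MS/MS with FAIMS, with FragPipe quantification. The per-cysteine log2 competition ratio is mean control-channel reporter intensity over mean compound-channel reporter intensity. Across three replicates with duplicate channels, cysteines quantified in only one replicate were excluded.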

log2 ratio of iodoacetamide-alkyne labeling, active:
NOP16 C36 (UniProt Q9Y3C1) 1.12
SRRM2 C1016 (UniProt Q9UQ35) 1.12

log2 ratio of iodoacetamide-alkyne labeling, inactive:
NOP58 C205 (UniProt Q9Y2X3) 0.555
MACF1 C7245 (UniProt Q9UPN3) 0.571
NOSIP C8 (UniProt Q9Y314) 0.701
DBNL C97 (UniProt Q9UJU6) 0.0952
MTMR6 C214 (UniProt Q9Y217) -0.0163
MINPP1 C337 (UniProt Q9UNW1) 0.503
VPS28 C96 (UniProt Q9UK41) 0.12
PRPF19 C230 (UniProt Q9UMS4) 0.231
SRRM2 C1480 (UniProt Q9UQ35) 0.319
MYO6 C1236 (UniProt Q9UM54) 0.0604
GTF3C4 C817 (UniProt Q9UKN8) 0.219
UniProt Q9Y3A3_C134 0.13
INO80 C13 (UniProt Q9ULG1) 0.492
CHORDC1 C86 (UniProt Q9UHD1) 0.526
UniProt Q9Y224_C19 -0.00633
ZC3H4 C1302 (UniProt Q9UPT8) 0.0969
HECTD1 C1995 (UniProt Q9ULT8) 0.345
KIDINS220 C867 (UniProt Q9ULH0) 0.436
MAGED2 C516 (UniProt Q9UNF1) 0.293
SRRM2 C2130 (UniProt Q9UQ35) 0.654

Random excerpt: two entries already listed.
log2 ratio of iodoacetamide-alkyne labeling, inactive:
DBNL C97 (UniProt Q9UJU6) 0.0952
MTMR6 C214 (UniProt Q9Y217) -0.0163
